Experimental data taken from patent US20090162363A1 (published 2009).
Results are given in words; binding and its absence hold for the method and conditions named. Binding calls can cover weak binding; strength is not graded here.

What was measured:
[1] = target: T1, recombinant human PEDF protein (pigment epithelium derived factor) (human) (UniProt P36955); assay: His-tag pull-down, solid-phase binding, ultrafiltration and SPR
T1 sequence (looked up): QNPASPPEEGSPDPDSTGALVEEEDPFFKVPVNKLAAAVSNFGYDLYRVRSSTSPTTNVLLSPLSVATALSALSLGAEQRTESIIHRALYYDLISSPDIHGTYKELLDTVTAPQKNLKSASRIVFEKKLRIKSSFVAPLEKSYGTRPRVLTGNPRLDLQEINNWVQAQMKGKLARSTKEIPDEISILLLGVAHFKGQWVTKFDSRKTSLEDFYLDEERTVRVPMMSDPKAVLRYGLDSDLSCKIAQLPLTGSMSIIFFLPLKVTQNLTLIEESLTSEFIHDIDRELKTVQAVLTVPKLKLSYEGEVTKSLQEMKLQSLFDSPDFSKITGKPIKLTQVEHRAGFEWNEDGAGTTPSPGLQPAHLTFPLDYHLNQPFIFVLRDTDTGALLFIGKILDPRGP

[2] = target: T1, recombinant human PEDF protein (pigment epithelium derived factor) (human); assay: purified His-tagged p12 with purified PEDF (assay not given)

## p12N (PEDF-binding fragment p12 of human R1 with N-terminal 6xHis tag, from pEXP-12N) (receptor)
[1]
  binding: binds
[2]
  binding: binds
